In publication PMC12287161, “A bioactive soluble recombinant mouse LIGHT promotes effective tumor immune cell infiltration delaying tumor growth” (Journal of Molecular Medicine (Berlin, Germany), 2025):
No constants are given. Whether binding was seen depends on the method and setting. Some results given as binding are weak or reduced against the parent protein; the word gives no strength.

By UniProt entry, the sequences of proteins in these tests, tags left out. Where a name states a change or a piece, a line headed by the entry shows the natural chain unless it says otherwise. Chains listed by the source or under a name are the forms on record and can include a tag or linker. Residues count along the entry.
UniProt P25445: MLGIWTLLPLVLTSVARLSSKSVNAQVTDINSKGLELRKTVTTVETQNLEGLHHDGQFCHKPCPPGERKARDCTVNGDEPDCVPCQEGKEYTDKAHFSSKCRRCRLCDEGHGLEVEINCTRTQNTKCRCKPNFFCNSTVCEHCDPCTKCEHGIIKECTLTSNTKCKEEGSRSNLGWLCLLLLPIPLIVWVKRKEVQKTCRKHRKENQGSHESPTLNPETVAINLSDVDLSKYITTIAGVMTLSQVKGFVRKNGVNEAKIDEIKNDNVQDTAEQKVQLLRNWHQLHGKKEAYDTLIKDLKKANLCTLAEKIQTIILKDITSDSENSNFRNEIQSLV
UniProt P50284, residues 31-223: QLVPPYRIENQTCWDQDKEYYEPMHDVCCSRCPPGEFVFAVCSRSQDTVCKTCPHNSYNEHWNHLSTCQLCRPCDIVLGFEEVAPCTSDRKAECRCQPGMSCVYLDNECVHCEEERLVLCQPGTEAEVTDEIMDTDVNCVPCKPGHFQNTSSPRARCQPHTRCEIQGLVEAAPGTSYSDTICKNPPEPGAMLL
Flag-human LIGHT (O43557, form named): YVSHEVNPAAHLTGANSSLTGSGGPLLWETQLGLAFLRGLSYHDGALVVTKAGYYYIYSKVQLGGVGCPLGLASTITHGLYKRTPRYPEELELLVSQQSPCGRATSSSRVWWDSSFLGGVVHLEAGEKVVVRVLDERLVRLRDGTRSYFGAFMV
mBTLA.Ig (Q7TSA3, form named): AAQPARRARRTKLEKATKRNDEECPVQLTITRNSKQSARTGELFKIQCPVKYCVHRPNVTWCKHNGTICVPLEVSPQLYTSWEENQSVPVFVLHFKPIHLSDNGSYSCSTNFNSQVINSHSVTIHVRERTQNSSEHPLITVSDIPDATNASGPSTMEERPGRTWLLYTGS

T1: mHVEM:Fas (mouse | human, UniProt Q80WM9 39-206; P25445 169-335)
T1 chain: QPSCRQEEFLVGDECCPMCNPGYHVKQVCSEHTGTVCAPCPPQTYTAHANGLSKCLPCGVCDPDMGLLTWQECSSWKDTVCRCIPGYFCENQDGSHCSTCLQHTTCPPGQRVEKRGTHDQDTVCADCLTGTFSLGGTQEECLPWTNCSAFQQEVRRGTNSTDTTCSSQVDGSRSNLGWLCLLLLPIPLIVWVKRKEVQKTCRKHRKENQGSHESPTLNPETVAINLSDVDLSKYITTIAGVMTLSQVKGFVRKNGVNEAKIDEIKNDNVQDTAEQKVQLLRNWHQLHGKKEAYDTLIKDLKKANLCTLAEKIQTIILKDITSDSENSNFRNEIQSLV


Experiments:
[1] = target: mLTβR.hIgG1 (mouse) (UniProt P50284); assay: ELISA; Maxisorp plates coated with serial dilutions of mHVEM.IgG2a or mLTβR.hIgG1 (control tags mIgG2a and hIgG1); Flag-hLIGHT at a fixed 50 ng/well; detected with biotinylated anti-Flag M2 and SA-HRPO, TMB, absorbance at 450 nm; both purified
[2] = target: T1, mHVEM:Fas; assay: flow cytometry on cells; purified fusion proteins (1 µg/ml) added to mHVEM:hFas or mLTβR:hFas Jurkat cells in FACS buffer (PBS, 2% FCS, 0.5 mM EDTA), 37 °C, 1 h; detected with biotinylated anti-mIgG2a (R19-15) or anti-Flag (M2) and streptavidin-Alexa Fluor 647; parental Jurkat cells as control; only the binder purified
[3] = target: mLTβR:Fas (mouse | human) (UniProt P50284+P25445); assay: as above

Row | binding [1] | binding [2] | Molecule | binding [3]
1 | binds | – | Flag-human LIGHT (from UniProt O43557 89-240) (ligand) | –
2 | – | binds | Ig.mLIGHT (from UniProt Q9QYH9 72-239) (Fc fusion) | no binding (tested: 1 µg/ml)
3 | – | binds | mBTLA.Ig (from UniProt Q7TSA3 30-184) (Fc fusion) | –

Row | Molecule | binding [1] | binding [2] | binding [3]
4 | Ig.Foldon-mLIGHT (Fc fusion) GYIPEAPRDGQAYVRKDGEWVLLSTFLDGGKGSWEKLIQDQRSHQANPAAHLTGANASLIGIGGPLLWETRLGLAFLRGLTYHDGALVTMEPGYYYVYSKVQLSGVGCPQGLANGLPITHGLYKRTSRYPKELELLVSRRSPCGRANSSRVWWDSSFLGGVVHLEAGEEVVVRVPGNRLVRPRDGTRSYFGAFMV | – | binds | binds
